Experimental data: PubChem BioAssay AID1159584 (Peter MacCallum Cancer Centre, 2016)
Here is an unselected part of about 18,000 reagents. Not all columns of the deposit are shown. Not given: the amount of reagent, the time to read-out.

Screen: 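Genes that CDH1-null MCF10A cells selectively depend on to survive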 (primary screen)
System: human MCF10A breast epithelial cells, parental and CDH1-null
Reagents: siRNA against human genes
Measurement: 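Cell viability by CellTiter-Glo ATP luminescence, each line scaled to the mean of mock wells across plates, then CDH1-null over parental ratio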
Reading the numbers: CDH1-null / parental viability ratio: higher = CDH1-null cells survive relatively better than parental; CDH1-null viability vs mock: higher = more viable CDH1-null cells

target gene,CDH1-null / parental viability ratio,CDH1-null viability vs mock (fraction of mock)
"ANKRD20A5P (ankyrin repeat domain 20 family member A5, pseudogene)",1.08,0.71
GNPTG (N-acetylglucosamine-1-phosphate transferase subunit gamma),0.86,0.76
CCDC54 (coiled-coil domain containing 54),1.07,0.88
TMEM33 (transmembrane protein 33),1.28,0.41
SLFN12 (schlafen family member 12),0.89,0.74
UBE2K (ubiquitin conjugating enzyme E2 K),1.18,0.8
SQOR (sulfide quinone oxidoreductase),1.24,1.18
INS (insulin),1.01,0.91
F8A3 (coagulation factor VIII associated 3),0.95,0.4
NR2E1 (nuclear receptor subfamily 2 group E member 1),0.81,0.73
SNRNP48 (small nuclear ribonucleoprotein U11/U12 subunit 48),1.02,0.84
"PKD2 (polycystin 2, transient receptor potential cation channel)",1.14,0.9
"POLE2 (DNA polymerase epsilon 2, accessory subunit)",0.88,0.88
ZFYVE19 (zinc finger FYVE-type containing 19),1.21,0.58
SERPINA3 (serpin family A member 3),0.93,0.67
PKIB (cAMP-dependent protein kinase inhibitor beta),0.55,0.44
TMEM39B (transmembrane protein 39B),0.9,0.74
APOE (apolipoprotein E),1.05,0.69
FSCN1 (fascin actin-bundling protein 1),1.18,0.52
BTNL2 (butyrophilin like 2),0.58,0.36
CHST5 (carbohydrate sulfotransferase 5),1.34,0.59
STK3 (serine/threonine kinase 3),0.67,0.61
GART,1.09,0.74
KCTD17 (potassium channel tetramerization domain containing 17),0.99,0.68
SLC30A7,1.02,0.98
LPAR6 (lysophosphatidic acid receptor 6),1.29,0.9
RGP1 (RGP1 partner of RAB6A GEF complex),1.04,0.52
LSMEM2 (leucine rich single-pass membrane protein 2),1.03,0.72
HLX (H2.0 like homeobox),0.88,0.72
MIDN (midnolin),1.21,0.68
THADA (THADA armadillo repeat containing),1.11,1.13
H2BC1 (H2B clustered histone 1),0.66,0.57
ZNF408 (zinc finger protein 408),0.87,0.59
TEX101 (testis expressed 101),0.84,0.53
MAOA (monoamine oxidase A),0.97,1
BBS1 (Bardet-Biedl syndrome 1),1.17,1.1
CAMSAP2,0.86,0.8
CLLU1 (chronic lymphocytic leukemia up-regulated 1),0.78,0.76
"AZGP1 (alpha-2-glycoprotein 1, zinc-binding)",1.81,0.76
KLHL27 (kelch like family member 27),1.05,0.8
ELAC1 (elaC ribonuclease Z 1),0.88,0.76
FAM168A (family with sequence similarity 168 member A),1.67,0.5

Reformatted: results already given.
INS (insulin)
- CDH1-null / parental viability ratio: 1.01
- CDH1-null viability vs mock (fraction of mock): 0.91

F8A3 (coagulation factor VIII associated 3)
- CDH1-null / parental viability ratio: 0.95
- CDH1-null viability vs mock (fraction of mock): 0.4

NR2E1 (nuclear receptor subfamily 2 group E member 1)
- CDH1-null / parental viability ratio: 0.81
- CDH1-null viability vs mock (fraction of mock): 0.73

SNRNP48 (small nuclear ribonucleoprotein U11/U12 subunit 48)
- CDH1-null / parental viability ratio: 1.02
- CDH1-null viability vs mock (fraction of mock): 0.84

PKD2 (polycystin 2, transient receptor potential cation channel)
- CDH1-null / parental viability ratio: 1.14
- CDH1-null viability vs mock (fraction of mock): 0.9

POLE2 (DNA polymerase epsilon 2, accessory subunit)
- CDH1-null / parental viability ratio: 0.88
- CDH1-null viability vs mock (fraction of mock): 0.88

ZFYVE19 (zinc finger FYVE-type containing 19)
- CDH1-null / parental viability ratio: 1.21
- CDH1-null viability vs mock (fraction of mock): 0.58

SERPINA3 (serpin family A member 3)
- CDH1-null / parental viability ratio: 0.93
- CDH1-null viability vs mock (fraction of mock): 0.67

PKIB (cAMP-dependent protein kinase inhibitor beta)
- CDH1-null / parental viability ratio: 0.55
- CDH1-null viability vs mock (fraction of mock): 0.44

Further reagents follow:
target gene,CDH1-null / parental viability ratio,CDH1-null viability vs mock (fraction of mock)
MDGA1 (MAM domain containing glycosylphosphatidylinositol anchor 1),0.96,0.48
PSORS1C2 (psoriasis susceptibility 1 candidate 2),1.2,0.42
ZNF30 (zinc finger protein 30),1.38,1.02
"NT5C1A (5'-nucleotidase, cytosolic IA)",1.56,0.81
ZNF141 (zinc finger protein 141),1.35,0.84
"GOLGA8EP (golgin A8 family member E, pseudogene)",0.95,1.06
DHX8 (DEAH-box helicase 8),0.66,0.54
CDH10 (cadherin 10),1.07,0.79
LBX2 (ladybird homeobox 2),1.16,1.23
GPI (glucose-6-phosphate isomerase),1.27,0.94
GARRE1 (granule associated Rac and RHOG effector 1),0.93,0.93
"ASAP1 (ArfGAP with SH3 domain, ankyrin repeat and PH domain 1)",1.18,0.52
PGBDF (plakoglobin binding and degradation factor),0.94,0.62
OR2F2 (olfactory receptor family 2 subfamily F member 2),0.89,0.78
ALDH3B1 (aldehyde dehydrogenase 3 family member B1),0.94,0.62
NOG (noggin),1.13,1.11
FAM9C (family with sequence similarity 9 member C),1.01,0.86
CCND3 (cyclin D3),0.99,0.66
UFM1 (ubiquitin fold modifier 1),1.44,0.98
BRPF1 (bromodomain and PHD finger containing 1),1.02,0.49
SLC6A15,0.94,0.94
RUVBL2 (RuvB like AAA ATPase 2),1.42,0.61
SPC25 (SPC25 component of NDC80 kinetochore complex),1.04,0.49
IDH2 (isocitrate dehydrogenase (NADP(+)) 2),0.75,0.76
SNX14 (sorting nexin 14),1.13,0.88
TMPRSS7 (transmembrane serine protease 7),0.98,0.8
